At least one peptide structure holds a part that was inferred or is arguable (an end, a ring closure or a residue).
Assays:
wild-type mice = assay: Oral glucose tolerance test 2 h and 96 h post injection in wild-type mice; assay type: in vivo, mouse; conditions: 10 nmol/kg s.c.; for glucose tolerance (OGTT) 96 h after administration: vs vehicle
DIO mice = assay: High-fat-diet-induced obesity (DIO) mouse study; assay type: in vivo

CC[C@H](C)[C@H](NC(=O)[C@H](CO)NC(=O)[C@H](Cc1ccc(O)cc1)NC(=O)[C@H](CC(=O)O)NC(=O)[C@H](CO)NC(=O)[C@@H](NC(=O)[C@H](Cc1ccccc1)NC(=O)[C@@H](NC(=O)CNC(=O)[C@H](CCC(=O)O)NC(=O)C(C)(C)NC(=O)[C@@H](N)Cc1ccc(O)cc1)[C@@H](C)O)[C@@H](C)O)C(=O)N[C@@H](Cc1ccc(O)cc1)C(=O)N[C@H]1CCCCNC(=O)CN(C(=O)CCNC(=O)CCOCCOCCNC(=O)CCOCCOCCNC(=O)CC[C@H](NC(=O)CCCCCCCCCCCCCCCCC(=O)O)C(=O)O)CC(=O)NCCCC[C@@H](C(=O)N[C@@H](Cc2ccccc2)C(=O)N[C@H](C(=O)N[C@@H](CC(N)=O)C(=O)N[C@@H](Cc2c[nH]c3ccccc23)C(=O)N[C@@H](CC(C)C)C(=O)N[C@@H](CC(C)C)C(=O)N[C@@H](C)C(=O)NCC(=O)NCC(=O)N2CCC[C@H]2C(=O)N[C@@H](CO)C(=O)N[C@@H](CO)C(=O)NCC(=O)N[C@@H](C)C(=O)N2CCC[C@H]2C(=O)N2CCC[C@H]2C(=O)N2CCC[C@H]2C(=O)N[C@@H](CO)C(N)=O)C(C)C)NC(=O)C(C)(C)NC(=O)[C@H](C)NC(=O)[C@H](C)NC(=O)[C@H](CCC(N)=O)NC(=O)[C@H](CCCCN)NC(=O)[C@H](CC(=O)O)NC1=O [mCLZ715, YAibEGT-FTSDY-SIYXD-KQAAAib-XFVNW-LLAGG-PSSGA-PPPS-NH2 (where each X is K)]
fasted glucose levels 96 h after administration (wild-type mice): significantly reduce fasted glucose levels
glucose tolerance (OGTT) 96 h after administration (wild-type mice): more significant improvements in handling glucose

CC[C@H](C)[C@H](NC(=O)[C@H](CO)NC(=O)[C@H](Cc1ccc(O)cc1)NC(=O)[C@H](CC(=O)O)NC(=O)[C@H](CO)NC(=O)[C@@H](NC(=O)[C@H](Cc1ccccc1)NC(=O)[C@@H](NC(=O)CNC(=O)[C@H](CCC(=O)O)NC(=O)C(C)(C)NC(=O)[C@@H](N)Cc1ccc(O)cc1)[C@@H](C)O)[C@@H](C)O)C(=O)N[C@@H](Cc1ccc(O)cc1)C(=O)N[C@H]1CCCCNC(=O)CN(C(=O)CCNC(=O)CCOCCOCCOCCNC(=O)CCCCCCCCCCCCCCCCC(=O)O)CC(=O)NCCCC[C@@H](C(=O)N[C@@H](Cc2ccccc2)C(=O)N[C@H](C(=O)N[C@@H](CC(N)=O)C(=O)N[C@@H](Cc2c[nH]c3ccccc23)C(=O)N[C@@H](CC(C)C)C(=O)N[C@@H](CC(C)C)C(=O)N[C@@H](C)C(=O)NCC(=O)NCC(=O)N2CCC[C@H]2C(=O)N[C@@H](CO)C(=O)N[C@@H](CO)C(=O)NCC(=O)N[C@@H](C)C(=O)N2CCC[C@H]2C(=O)N2CCC[C@H]2C(=O)N2CCC[C@H]2C(=O)N[C@@H](CO)C(N)=O)C(C)C)NC(=O)C(C)(C)NC(=O)[C@H](C)NC(=O)[C@H](C)NC(=O)[C@H](CCC(N)=O)NC(=O)[C@H](CCCCN)NC(=O)[C@H](CC(=O)O)NC1=O [mCMD307, YAibEGT-FTSDY-SIYXD-KQAAAib-XFVNW-LLAGG-PSSGA-PPPS-NH2 (where each X is K)]
fasted glucose levels 96 h after administration (wild-type mice): significantly reduce fasted glucose levels
glucose tolerance (OGTT) 96 h after administration (wild-type mice): more significant improvements in handling glucose
food intake (DIO mice; 40 μg/kg): significantly reduced
fed blood glucose (DIO mice; day 21, vs PBS-treated): significantly lower
body weight (DIO mice; s.c. dosing, 40 μg/kg): steady reduction in body weight
fasting blood glucose levels (DIO mice; s.c. dosing, 40 μg/kg): steady reduction

Source: patent US20250320252A1 (The Scripps Research Institute, priority 2021, published 2025)
